The list shows a part of the results.

Chains of the proteins cited; added tags and fusions are not shown. Lines headed by an entry give the natural chain unless they say otherwise; changes in a name come on top.
UniProt O43251: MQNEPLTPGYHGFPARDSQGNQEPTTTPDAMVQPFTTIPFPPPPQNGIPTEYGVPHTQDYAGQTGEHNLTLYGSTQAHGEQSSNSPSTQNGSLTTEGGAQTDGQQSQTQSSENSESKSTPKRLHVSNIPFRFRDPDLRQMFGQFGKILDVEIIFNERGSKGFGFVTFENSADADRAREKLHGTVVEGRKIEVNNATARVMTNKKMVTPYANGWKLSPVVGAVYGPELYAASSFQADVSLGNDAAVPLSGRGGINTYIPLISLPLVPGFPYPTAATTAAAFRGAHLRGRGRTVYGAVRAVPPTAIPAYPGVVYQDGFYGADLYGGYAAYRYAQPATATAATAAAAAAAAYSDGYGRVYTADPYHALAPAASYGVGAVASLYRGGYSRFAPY
UniProt Q9UKM9: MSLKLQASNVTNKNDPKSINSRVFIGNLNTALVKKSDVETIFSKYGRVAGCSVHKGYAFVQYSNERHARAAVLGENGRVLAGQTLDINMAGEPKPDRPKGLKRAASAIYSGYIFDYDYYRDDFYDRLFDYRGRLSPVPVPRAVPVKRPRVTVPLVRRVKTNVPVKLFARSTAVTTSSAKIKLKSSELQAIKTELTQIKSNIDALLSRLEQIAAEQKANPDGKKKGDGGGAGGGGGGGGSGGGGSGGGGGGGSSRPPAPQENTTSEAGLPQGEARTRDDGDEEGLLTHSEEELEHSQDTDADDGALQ
UniProt O75943: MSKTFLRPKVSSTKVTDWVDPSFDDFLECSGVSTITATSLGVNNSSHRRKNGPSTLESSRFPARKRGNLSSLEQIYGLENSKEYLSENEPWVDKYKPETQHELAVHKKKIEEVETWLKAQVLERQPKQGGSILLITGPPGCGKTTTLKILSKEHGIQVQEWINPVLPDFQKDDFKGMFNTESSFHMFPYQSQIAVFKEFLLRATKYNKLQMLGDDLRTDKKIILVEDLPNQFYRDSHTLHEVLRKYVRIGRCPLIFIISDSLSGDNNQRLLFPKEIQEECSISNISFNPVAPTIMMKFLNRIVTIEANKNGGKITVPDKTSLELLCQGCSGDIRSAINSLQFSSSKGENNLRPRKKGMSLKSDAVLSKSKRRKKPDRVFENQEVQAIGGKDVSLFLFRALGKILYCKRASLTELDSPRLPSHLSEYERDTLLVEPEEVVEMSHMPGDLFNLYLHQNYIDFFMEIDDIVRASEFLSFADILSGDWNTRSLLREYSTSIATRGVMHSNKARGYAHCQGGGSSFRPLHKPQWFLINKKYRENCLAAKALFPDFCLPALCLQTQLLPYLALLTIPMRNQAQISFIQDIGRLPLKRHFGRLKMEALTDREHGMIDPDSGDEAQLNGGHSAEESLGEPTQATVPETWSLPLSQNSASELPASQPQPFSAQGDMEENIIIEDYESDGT
UniProt Q15291, whole entry, looked up: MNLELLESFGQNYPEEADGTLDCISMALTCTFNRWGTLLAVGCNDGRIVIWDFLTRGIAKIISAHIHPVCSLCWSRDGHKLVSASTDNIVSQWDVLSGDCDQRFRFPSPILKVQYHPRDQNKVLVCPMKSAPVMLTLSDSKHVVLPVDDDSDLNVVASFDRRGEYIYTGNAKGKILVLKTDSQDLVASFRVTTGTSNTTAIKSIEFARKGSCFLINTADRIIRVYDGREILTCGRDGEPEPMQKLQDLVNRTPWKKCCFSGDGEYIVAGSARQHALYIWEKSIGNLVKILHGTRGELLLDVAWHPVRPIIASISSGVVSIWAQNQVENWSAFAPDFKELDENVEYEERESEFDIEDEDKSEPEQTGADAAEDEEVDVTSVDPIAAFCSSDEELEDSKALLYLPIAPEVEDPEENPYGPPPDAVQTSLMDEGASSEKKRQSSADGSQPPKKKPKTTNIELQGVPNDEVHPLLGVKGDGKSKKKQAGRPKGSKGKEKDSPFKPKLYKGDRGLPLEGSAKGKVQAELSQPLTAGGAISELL
UniProt P20337: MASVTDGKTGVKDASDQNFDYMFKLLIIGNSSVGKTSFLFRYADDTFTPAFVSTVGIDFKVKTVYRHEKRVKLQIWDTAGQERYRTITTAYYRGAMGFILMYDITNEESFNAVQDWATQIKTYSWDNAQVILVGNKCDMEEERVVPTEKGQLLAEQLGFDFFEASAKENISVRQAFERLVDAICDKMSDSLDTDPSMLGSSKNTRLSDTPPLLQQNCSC
UniProt Q96E17: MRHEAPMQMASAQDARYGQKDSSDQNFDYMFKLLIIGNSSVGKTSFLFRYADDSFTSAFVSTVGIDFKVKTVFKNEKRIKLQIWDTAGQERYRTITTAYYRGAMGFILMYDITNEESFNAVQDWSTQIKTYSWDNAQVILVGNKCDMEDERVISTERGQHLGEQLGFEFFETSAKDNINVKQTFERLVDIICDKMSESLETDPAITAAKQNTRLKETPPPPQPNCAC
UniProt Q15032: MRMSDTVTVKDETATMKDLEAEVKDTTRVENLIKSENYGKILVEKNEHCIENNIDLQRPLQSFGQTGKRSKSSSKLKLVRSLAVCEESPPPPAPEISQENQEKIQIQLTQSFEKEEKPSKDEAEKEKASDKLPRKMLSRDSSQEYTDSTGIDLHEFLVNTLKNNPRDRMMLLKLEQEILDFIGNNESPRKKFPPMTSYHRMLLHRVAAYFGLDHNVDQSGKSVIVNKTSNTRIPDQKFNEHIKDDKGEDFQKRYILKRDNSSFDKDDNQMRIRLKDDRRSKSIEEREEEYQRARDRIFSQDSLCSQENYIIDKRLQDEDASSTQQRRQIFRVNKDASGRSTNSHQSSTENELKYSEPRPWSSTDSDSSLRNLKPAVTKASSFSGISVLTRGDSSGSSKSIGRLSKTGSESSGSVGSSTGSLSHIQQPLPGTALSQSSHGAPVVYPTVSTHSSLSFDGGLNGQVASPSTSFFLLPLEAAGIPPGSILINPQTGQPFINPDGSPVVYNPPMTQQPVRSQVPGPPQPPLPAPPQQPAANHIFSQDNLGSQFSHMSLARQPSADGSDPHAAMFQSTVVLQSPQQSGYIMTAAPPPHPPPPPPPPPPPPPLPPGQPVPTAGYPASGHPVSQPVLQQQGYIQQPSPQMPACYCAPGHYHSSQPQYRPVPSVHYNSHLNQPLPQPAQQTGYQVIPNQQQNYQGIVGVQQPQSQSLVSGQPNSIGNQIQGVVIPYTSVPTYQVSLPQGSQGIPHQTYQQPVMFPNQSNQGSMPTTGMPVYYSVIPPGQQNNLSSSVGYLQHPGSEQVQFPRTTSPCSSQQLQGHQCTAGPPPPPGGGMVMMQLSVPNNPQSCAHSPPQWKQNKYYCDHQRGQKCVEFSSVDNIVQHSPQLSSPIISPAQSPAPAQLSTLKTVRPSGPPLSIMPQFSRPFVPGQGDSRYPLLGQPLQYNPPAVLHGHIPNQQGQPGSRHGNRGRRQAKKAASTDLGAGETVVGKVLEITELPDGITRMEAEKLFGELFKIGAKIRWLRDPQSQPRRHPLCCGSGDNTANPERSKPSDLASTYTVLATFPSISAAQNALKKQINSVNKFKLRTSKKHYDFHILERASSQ
UniProt Q15311: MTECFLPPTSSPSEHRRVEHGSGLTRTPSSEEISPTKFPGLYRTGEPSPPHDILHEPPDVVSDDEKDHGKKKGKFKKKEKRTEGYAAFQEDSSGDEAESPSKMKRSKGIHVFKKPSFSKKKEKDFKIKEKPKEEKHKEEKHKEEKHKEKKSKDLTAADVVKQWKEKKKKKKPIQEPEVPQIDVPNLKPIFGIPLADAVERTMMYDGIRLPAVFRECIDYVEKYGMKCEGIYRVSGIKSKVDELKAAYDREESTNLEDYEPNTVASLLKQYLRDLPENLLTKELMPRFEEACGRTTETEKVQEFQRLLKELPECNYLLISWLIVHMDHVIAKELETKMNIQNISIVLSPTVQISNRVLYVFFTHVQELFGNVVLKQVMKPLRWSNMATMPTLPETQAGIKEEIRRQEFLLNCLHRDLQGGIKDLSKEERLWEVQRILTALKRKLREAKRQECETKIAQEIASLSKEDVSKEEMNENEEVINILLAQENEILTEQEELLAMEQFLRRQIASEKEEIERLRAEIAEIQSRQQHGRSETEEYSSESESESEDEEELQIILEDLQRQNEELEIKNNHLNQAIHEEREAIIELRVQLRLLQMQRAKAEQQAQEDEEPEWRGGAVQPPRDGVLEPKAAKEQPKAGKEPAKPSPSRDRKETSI
UniProt Q96S21: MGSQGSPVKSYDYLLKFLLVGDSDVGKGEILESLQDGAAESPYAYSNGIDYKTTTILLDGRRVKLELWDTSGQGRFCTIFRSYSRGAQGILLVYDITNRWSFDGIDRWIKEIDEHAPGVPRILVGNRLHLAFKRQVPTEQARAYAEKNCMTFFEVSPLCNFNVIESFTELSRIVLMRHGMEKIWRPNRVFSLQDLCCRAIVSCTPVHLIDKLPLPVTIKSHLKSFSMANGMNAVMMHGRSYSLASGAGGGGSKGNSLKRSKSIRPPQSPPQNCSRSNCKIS
UniProt Q9H082: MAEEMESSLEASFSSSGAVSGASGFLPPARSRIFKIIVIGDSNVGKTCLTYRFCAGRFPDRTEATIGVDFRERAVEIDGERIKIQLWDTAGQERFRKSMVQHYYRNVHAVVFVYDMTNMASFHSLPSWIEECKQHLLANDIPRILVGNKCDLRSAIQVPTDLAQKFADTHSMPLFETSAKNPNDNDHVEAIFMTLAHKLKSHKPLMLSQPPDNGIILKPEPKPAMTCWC
UniProt Q96D70: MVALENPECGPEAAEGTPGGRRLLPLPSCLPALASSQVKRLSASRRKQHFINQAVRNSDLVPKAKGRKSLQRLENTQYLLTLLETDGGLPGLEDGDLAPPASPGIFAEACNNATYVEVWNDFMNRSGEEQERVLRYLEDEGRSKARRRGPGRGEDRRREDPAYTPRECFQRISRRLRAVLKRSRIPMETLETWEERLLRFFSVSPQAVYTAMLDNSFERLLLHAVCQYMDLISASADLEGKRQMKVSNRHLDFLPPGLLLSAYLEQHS
UniProt Q9UI14, whole entry, looked up: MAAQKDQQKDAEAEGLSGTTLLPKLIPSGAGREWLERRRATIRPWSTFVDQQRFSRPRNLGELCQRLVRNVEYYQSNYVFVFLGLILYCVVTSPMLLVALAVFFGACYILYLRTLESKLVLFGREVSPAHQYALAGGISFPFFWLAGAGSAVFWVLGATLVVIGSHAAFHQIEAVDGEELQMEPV
UniProt Q86U06: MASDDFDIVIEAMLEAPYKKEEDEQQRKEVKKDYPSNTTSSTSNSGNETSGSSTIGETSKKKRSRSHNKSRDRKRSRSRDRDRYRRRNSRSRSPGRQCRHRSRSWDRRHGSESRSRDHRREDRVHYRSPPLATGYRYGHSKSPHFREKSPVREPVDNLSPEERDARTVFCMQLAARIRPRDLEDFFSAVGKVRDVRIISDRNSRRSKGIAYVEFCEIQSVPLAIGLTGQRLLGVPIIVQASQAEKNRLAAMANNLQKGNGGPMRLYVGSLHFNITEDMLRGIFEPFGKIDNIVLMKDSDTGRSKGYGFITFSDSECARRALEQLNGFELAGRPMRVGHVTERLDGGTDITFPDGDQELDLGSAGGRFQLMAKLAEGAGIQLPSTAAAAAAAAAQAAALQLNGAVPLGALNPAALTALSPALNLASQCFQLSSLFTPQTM
UniProt Q15283: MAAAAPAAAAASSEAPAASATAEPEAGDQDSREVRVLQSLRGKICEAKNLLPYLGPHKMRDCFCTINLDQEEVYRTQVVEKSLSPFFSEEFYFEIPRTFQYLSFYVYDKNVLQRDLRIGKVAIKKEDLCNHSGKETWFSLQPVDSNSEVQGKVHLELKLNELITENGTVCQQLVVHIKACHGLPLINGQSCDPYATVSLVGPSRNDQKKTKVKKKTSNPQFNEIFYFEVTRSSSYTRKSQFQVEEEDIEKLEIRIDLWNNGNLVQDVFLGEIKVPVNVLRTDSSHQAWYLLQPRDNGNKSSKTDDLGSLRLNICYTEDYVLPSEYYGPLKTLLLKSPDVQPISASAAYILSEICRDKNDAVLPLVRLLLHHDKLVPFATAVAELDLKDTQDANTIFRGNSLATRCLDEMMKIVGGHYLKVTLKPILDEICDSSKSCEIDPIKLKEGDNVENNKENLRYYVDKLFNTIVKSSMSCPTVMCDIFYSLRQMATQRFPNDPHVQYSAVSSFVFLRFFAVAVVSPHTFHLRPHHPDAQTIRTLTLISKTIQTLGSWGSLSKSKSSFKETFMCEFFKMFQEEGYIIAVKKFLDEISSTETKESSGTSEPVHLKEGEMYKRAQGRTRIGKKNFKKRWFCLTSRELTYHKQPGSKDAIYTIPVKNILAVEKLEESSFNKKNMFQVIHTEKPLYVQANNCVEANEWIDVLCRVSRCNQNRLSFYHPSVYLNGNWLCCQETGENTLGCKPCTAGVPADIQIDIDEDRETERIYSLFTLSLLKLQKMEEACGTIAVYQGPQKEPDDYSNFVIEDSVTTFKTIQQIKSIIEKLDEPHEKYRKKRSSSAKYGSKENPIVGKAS
UniProt Q15771: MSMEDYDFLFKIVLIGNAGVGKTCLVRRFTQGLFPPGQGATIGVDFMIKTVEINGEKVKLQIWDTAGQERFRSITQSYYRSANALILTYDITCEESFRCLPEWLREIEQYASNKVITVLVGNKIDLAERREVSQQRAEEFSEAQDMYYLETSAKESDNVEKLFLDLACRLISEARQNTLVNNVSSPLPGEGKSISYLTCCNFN

Compound in one test: Cc1sc2c(c1C)C(c1ccc(Cl)cc1)=N[C@@H](CC(=O)OC(C)(C)C)c1nnc(C)n1-2
In words: log2 fold change, soluble protein after heating vs DMSO (PISA); higher = thermal stabilisation; K562 cells, 10 uM, 30 min; active = over 0.2 and 3.5 SD of the protein, either way, in both replicates (recomputed). In a few lines: (§1)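 Aliquots of K562 cells (2×10^6 cells/mL) treated with 10 μM compound for 30 min were heated for 3 min over 48°C-58°C. After pooling and extraction in PBS with 0.5% NP-40 at 4°C, soluble protein from a 21,000xg, 90 min spin was quantified by TMTpro 16plex LC-MS/MS with channel sums equalised. Thermal stability is expressed against control samples, from duplicates, as a log2 fold change.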
For the target RBFOX2 isoform 8 (UniProt O43251), the log2 fold change was inactive: 0.03.
Still for that read-out and setting: to RBCK1 (UniProt Q9BYM8) belongs inactive: -0.139; to RALY (UniProt Q9UKM9), inactive: 0.031.
On the same count and under the same terms, to RASA1 (UniProt P20936) belongs inactive: 0.073; to RBBP8 isoform 2 (UniProt Q99708), inactive: 0.015.
Still for that read-out and setting: to RAD17 (UniProt O75943) belongs inactive: 0.051; to RBBP5 isoform 2 (UniProt Q15291), inactive: -0.055; to RAB3B (UniProt P20337), inactive: -0.008.
With RAB3C (UniProt Q96E17), the log2 fold change is inactive: 0.02.
With RAB3IL1 (UniProt E9PK89), the log2 fold change was inactive: 0.15.
On the same count and under the same terms, to RALGAPB (UniProt Q86X10) belongs inactive: 0.098; to R3HDM1 isoform 2 (UniProt Q15032), inactive: 0.033.
Still for that read-out and setting: to RANBP3 isoform 2 (UniProt Q9H6Z4) belongs inactive: 0.071; to RALBP1 (UniProt Q15311), inactive: 0.068; to RABGAP1L isoform 5 (UniProt Q5R372), inactive: 0.113.
The same measure, in the same setting: for RAD51B (UniProt O15315) the value was inactive: 0.035.
For RAB40C (UniProt Q96S21), the log2 fold change was inactive: -0.18.
Same read-out and setting: for RAB33B (UniProt Q9H082) the value was inactive: -0.016; for R3HDM4 (UniProt Q96D70), inactive: 0.089; for RABAC1 (UniProt Q9UI14), inactive: -0.02.

Compound in a further test: c1ccc([C@@H]2C[C@H]2NC2CCNCC2)cc1
The test is described as above. In a few lines: as §1
Take RBFOX2 isoform 8 (UniProt O43251): the log2 fold change is inactive: 0.
The same measure, in the same setting: to RASSF3 (UniProt Q86WH2) belongs inactive: 0; to RBCK1 (UniProt Q9BYM8), inactive: -0.11; to RBM23 (UniProt Q86U06), inactive: 0.315.
For the target RALY (UniProt Q9UKM9), the log2 fold change is inactive: 0.003.
Still for that read-out and setting: to RASA1 (UniProt P20936) belongs inactive: -0.103; to RAB28 (UniProt P51157), inactive: 0.057.
Same read-out and setting: for RABEP2 (UniProt Q9H5N1) the value was inactive: -0.134; for RASA2 (UniProt Q15283), inactive: 0.158; for RAB3C (UniProt Q96E17), inactive: 0.036.
Still for that read-out and setting: for RBBP4 isoform 2 (UniProt Q09028) the value was inactive: 0.157.
Regarding RAB3IL1 (UniProt E9PK89), the log2 fold change is inactive: -0.136.
Still for that read-out and setting: for RALGAPB (UniProt Q86X10) the value was inactive: 0.145; for RAB30 (UniProt Q15771), inactive: 0.041; for RASA3 (UniProt Q14644), inactive: -0.259.
Take RAP1B (UniProt F5GWU8): the log2 fold change is inactive: -0.205.
Still for that read-out and setting: for RALBP1 (UniProt Q15311) the value was inactive: -0.208.
The same measure, in the same setting: for RABGAP1L isoform 5 (UniProt Q5R372) the value was inactive: 0.066.
The same measure, in the same setting: to RAD51B (UniProt O15315) belongs inactive: 0.111.
Turning to RBM28 (UniProt Q9NW13), the log2 fold change is inactive: -0.122.
The same measure, in the same setting: for RAB33B (UniProt Q9H082) the value was inactive: 0.069.

These data come from the supplement of paper PMC10849652.
